Experimental data taken from article PMC7198521.
No constants are given. Whether binding was seen depends on the method and setting. Binding calls can cover weak binding; strength is not graded here.

By UniProt entry, the sequences of proteins in these tests, tags left out. Where a name states a change or a piece, a line headed by the entry shows the natural chain unless it says otherwise.
UniProt Q9U205: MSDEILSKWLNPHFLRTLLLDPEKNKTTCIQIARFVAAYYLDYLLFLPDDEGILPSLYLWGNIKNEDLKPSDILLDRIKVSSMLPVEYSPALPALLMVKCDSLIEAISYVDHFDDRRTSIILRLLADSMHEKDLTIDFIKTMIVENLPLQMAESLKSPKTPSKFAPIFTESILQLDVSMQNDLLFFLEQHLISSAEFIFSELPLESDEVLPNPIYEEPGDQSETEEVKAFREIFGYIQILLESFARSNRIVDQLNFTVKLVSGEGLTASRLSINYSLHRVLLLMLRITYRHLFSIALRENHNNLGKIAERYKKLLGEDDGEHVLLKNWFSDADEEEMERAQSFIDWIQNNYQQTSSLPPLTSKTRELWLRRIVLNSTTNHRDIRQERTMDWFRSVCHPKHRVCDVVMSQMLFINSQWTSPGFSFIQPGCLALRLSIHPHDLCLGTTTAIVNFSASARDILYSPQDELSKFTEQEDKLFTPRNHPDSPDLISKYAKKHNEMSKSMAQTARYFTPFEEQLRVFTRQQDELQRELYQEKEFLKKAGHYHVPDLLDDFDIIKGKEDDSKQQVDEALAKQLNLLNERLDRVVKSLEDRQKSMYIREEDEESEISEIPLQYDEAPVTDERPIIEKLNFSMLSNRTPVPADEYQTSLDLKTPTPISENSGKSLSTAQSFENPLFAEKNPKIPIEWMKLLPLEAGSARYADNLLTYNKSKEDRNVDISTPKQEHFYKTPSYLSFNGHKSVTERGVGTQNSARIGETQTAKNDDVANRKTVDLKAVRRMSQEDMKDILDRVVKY
UniProt Q9XWN2: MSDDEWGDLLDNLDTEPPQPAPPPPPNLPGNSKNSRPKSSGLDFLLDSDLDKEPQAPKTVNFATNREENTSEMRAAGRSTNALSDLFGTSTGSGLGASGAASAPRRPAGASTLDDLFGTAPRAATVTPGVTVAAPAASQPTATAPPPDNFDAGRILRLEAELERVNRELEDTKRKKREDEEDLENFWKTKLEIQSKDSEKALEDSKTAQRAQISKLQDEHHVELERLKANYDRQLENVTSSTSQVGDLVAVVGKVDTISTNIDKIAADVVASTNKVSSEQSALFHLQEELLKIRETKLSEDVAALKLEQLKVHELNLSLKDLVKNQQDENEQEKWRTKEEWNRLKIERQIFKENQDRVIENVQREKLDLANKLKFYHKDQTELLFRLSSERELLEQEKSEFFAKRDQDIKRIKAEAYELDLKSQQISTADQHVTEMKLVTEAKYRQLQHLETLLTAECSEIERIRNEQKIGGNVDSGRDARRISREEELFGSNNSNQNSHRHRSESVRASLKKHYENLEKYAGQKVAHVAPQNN
UniProt O16626: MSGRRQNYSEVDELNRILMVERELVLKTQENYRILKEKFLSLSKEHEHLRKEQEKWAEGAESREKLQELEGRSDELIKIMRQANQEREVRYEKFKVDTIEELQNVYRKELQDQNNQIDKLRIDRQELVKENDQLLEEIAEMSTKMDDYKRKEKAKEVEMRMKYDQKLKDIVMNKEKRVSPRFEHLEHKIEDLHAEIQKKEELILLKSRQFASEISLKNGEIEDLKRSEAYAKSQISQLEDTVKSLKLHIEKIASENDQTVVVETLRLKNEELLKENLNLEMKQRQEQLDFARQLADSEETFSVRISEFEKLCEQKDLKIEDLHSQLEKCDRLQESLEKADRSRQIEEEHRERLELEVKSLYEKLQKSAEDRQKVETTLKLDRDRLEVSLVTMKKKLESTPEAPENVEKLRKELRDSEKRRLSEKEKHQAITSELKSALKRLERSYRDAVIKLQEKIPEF

Columns and labels:
[1] = target: GST-fused full-length TALP-3 (C. elegans) (UniProt Q9U205); test: pull-down; purified GST fusion protein immobilised on glutathione Sepharose beads, incubated with His fusion protein 4 h at 4 °C; 50 mM Tris-HCl pH 7.4, 150 mM NaCl, 1% Triton X-100, 1 mM dithiothreitol, 10% glycerol; western blot with anti-His antibody; both purified
[2] = target: DYF-19 (recombinant, GST pull-down) (C. elegans) (UniProt Q9XWN2); test: as above

| Substance | binding [1] | binding [2] |
| --- | --- | --- |
| DYF-19 (recombinant, GST pull-down) (from UniProt Q9XWN2) | binds | – |
| His-fused ANKR-26 (from UniProt O16626) | binds | binds |
